Taken from: PubChem BioAssay AID652272 (Drosophila RNAi Screening Center, 2013)
The deposit covers about 21,000 reagents; this is an unselected part of those that have a named target and a result. Over the whole deposit, 503 (2.4%) were called active. 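Raw plate light values, not normalised; calls rest on replicate z-scores that were not deposited; hits include reporter decreases as well as increases.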 Unmarked entries are inactive. Not given: the amount of reagent, the time to read-out.

Test: 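Genes whose knock-down decreases or increases Hedgehog reporter output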 (primary screen)
System: Drosophila clone 8 (Cl8) cells
Reagent: long dsRNA against Drosophila genes
Measurement: 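Plate reader light from a firefly reporter under a ptc promoter fragment that responds to Hedgehog, with Renilla light as transfection reference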
Direction: firefly Hh reporter signal: higher = more ptc reporter light; Renilla reference signal: higher = more Renilla control light
Active means: 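Hit when the z-score averaged over two replicates is under -2 or over +3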
Calls: active = hit: reporter lowered or raised; inactive = not a hit

no.	gene knocked down	DRSC id	firefly Hh reporter signal, replicate 1	firefly Hh reporter signal, replicate 2	firefly Hh reporter signal, replicate 3	Renilla reference signal, replicate 1	Renilla reference signal, replicate 2
1	Fer1HCH (Ferritin 1 heavy chain homologue)	DRSC16671	96742	66640		2668	2420
2	Lcp65Af	DRSC11213	74576	61813		8230	4608
3	CG9586	DRSC03270	1.42e5	63770		3814	6048
4	CG13609	DRSC14612	7.46e5	1.63e5		41575	5020
5	cuff (cutoff)	DRSC06315	82231	67867		1112	4200
6	RhoGAP93B (Rho GTPase activating protein at 93B)	DRSC15488	7.71e5	1.12e5		37042	3170
7	Snx3 (Sorting nexin 3)	DRSC16027	91049	1.27e5		2614	3625
8	RhoGEF3 (Rho guanine nucleotide exchange factor 3)	DRSC08266	1.38e5	7.24e5	1.07e5	5901	41083
9	RhoGEF3 (Rho guanine nucleotide exchange factor 3)	DRSC08351	1.03e5	34412		3348	2870
10	RhoGEF3 (Rho guanine nucleotide exchange factor 3)	DRSC08352	71144	31091		2353	2532
11	RhoGEF3 (Rho guanine nucleotide exchange factor 3)	DRSC08353	81922	37384		2921	2549
12	CG3651	DRSC03730	54966	83064		1509	6864
13	CG9649	DRSC16534	1.83e5	1.10e5		7643	4593
14	l(2)k01209 (lethal (2) k01209)	DRSC06889	73276	51291		2064	4256
15	mRpS18C (mitochondrial ribosomal protein S18C)	DRSC16538	68304	83623		1648	2408
16	Amy-d (Amylase distal)	DRSC05919	92795	43130		2416	3394
17	CG13837	DRSC14687	5.88e5	1.28e5		28375	3739
18	GILT2 (Gamma-interferon-inducible lysosomal thiol reductase 2)	DRSC14196	1.17e5	1.04e5		5461	3744
19	PLCXD	DRSC02427	97304	5.71e5	61180	2459	31163
20	CG2921	DRSC04324	55284	58230		2584	2208
21	CG7296	DRSC03042	4.33e5	7.64e5	2.45e5	27574	5802
22	Cenp-C (Centromeric protein-C)	DRSC14371	71494	87376		2653	2566
23	Obp19a (Odorant-binding protein 19a)	DRSC20487	79400	2.05e5		2128	10554
24	CG11893	DRSC14429	6.83e5	1.56e5		32624	4628
25	CecA1 (Cecropin A1)	DRSC16603	82872	98666		2189	2929
26	Lcp65Ad	DRSC11211	76232	55719		8947	4539
27	PIP4K (Phosphatidylinositol 5-phosphate 4-kinase)	DRSC17213	98044	2.53e5		4087	9650
28	SmD3 (Small ribonucleoprotein particle protein SmD3)	DRSC07553	65787	35394		2077	3168
29	CoRest	DRSC19881	1.46e5	1.39e5		2051	2885
30	ox (oxen)	DRSC07520	78589	55009		1364	3431
31	gek (genghis khan)	DRSC04688	1.26e5	45776		4485	1668
32	CG15278	DRSC02481	1.06e5	49979		3015	4555
33	CG12994	DRSC19192	5.33e5	1.49e5		32625	3568
34	CG12994	DRSC19514	71584	1.76e5		2443	8440
35	CG34305	DRSC11995	2.27e5			5136	
36	CG8379	DRSC16414	70904	1.16e5		2915	3954
37	fax (failed axon connections)	DRSC11345	42880 (active)	32810		3152	2183
38	Tmem131 (Transmembrane protein 131)	DRSC07154	69697	69584		3435	2522
39	Pgant7 (Polypeptide N-Acetylgalactosaminyltransferase 7)	DRSC19991	1.03e5	62978		2464	1479
40	CG17658	DRSC04292	71875	56352		1344	5099
41	Lcp9 (Larval cuticle protein 9)	DRSC04287	95433	55178		2400	4109
42	GstE10 (Glutathione S transferase E10)	DRSC06671	90864	44658		2803	3521
43	mRpS22 (mitochondrial ribosomal protein S22)	DRSC14488	61737	94776		1289	2810
44	Trf4 (TBP-related factor 4)	DRSC00729	1.15e5	68596		2864	1716
45	Dhps (Deoxyhypusine synthase)	DRSC10948	51872	74661		598	4938
46	CG6106	DRSC19971	90172	2.63e5		2624	10426
47	unk (unkempt)	DRSC17093	1.83e5	1.18e5		7338	4425
48	CG13896	DRSC08366	68520	51412		2781	3729
49	NimC3 (Nimrod C3)	DRSC03556	1.77e5	81943		4545	7931
50	CG31462 (retired record)	DRSC14359	48453	1.07e5		1264	3323
51	CG30015	DRSC05241	1.76e5	2.45e5		4429	10609
52	CG30015	DRSC07027	55828	38912		2564	1809
53	CG30015	DRSC07028	77940	46434		1866	3792
54	yuri (yuri gagarin)	DRSC01453	1.16e5	2.29e5		3242	11516
55	yuri (yuri gagarin)	DRSC01454	1.50e5	2.02e5		3731	9530
56	yuri (yuri gagarin)	DRSC01943	1.01e5	74790		2576	6154
57	yuri (yuri gagarin)	DRSC01972	1.04e5	77800		4307	3290

7 entries already listed, arranged by “Renilla reference signal, replicate 1”, lowest first:
gene knocked down	DRSC id	firefly Hh reporter signal, replicate 1	firefly Hh reporter signal, replicate 2	firefly Hh reporter signal, replicate 3	Renilla reference signal, replicate 1	Renilla reference signal, replicate 2
CG17658	DRSC04292	71875	56352		1344	5099
Lcp9 (Larval cuticle protein 9)	DRSC04287	95433	55178		2400	4109
Pgant7 (Polypeptide N-Acetylgalactosaminyltransferase 7)	DRSC19991	1.03e5	62978		2464	1479
CG8379	DRSC16414	70904	1.16e5		2915	3954
fax (failed axon connections)	DRSC11345	42880 (active)	32810		3152	2183
Tmem131 (Transmembrane protein 131)	DRSC07154	69697	69584		3435	2522
CG34305	DRSC11995	2.27e5			5136	
